Assay results published in publication PMC5386388.
Results are given in words; binding and its absence hold for the method and conditions named. For part of these data: Binding seen in cells or lysates may run through a third protein. For part of these data: Tags and fused reporters may be left off the sequences shown. Some binding calls cover weakened binding; strength is not graded here. Each block holds one molecule with its values, some of them ahead of it.

By UniProt entry, the sequences of proteins in these tests, tags left out. Where a name states a change or a piece, a line headed by the entry shows the natural chain unless it says otherwise. Residues count along the entry.
UniProt P26599: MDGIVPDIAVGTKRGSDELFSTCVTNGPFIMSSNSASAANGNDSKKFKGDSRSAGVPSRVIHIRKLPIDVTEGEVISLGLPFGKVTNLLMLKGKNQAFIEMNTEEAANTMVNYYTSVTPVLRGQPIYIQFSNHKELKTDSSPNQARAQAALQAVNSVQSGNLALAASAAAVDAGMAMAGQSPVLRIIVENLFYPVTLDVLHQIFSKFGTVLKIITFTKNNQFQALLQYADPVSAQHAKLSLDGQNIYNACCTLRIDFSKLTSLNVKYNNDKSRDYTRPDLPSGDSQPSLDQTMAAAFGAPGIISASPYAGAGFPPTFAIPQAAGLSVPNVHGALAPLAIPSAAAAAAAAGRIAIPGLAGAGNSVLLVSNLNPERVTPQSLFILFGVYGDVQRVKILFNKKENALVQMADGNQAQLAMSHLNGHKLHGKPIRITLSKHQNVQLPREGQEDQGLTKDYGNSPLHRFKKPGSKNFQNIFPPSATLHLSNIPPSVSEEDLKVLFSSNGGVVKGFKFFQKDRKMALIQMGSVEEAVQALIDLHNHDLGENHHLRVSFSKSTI
UniProt Q9UNE7: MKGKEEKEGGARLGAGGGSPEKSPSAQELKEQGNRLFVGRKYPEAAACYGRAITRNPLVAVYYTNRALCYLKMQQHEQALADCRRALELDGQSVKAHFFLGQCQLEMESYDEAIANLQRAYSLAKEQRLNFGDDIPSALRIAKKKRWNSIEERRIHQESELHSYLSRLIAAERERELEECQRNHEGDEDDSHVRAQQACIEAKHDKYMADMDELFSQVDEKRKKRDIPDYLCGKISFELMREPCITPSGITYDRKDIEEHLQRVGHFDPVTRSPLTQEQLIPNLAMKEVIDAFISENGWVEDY
HA-CHIP-ΔTPR (128–303 amino acids): residues 128-303 of Q9UNE7

How the values were obtained:
[1] = biological target: T1, FLAG-DDIAS (human) (UniProt Q8IXT1); assay: co-IP; HEK293T cells co-transfected; lysates in RIPA buffer; IP with anti-FLAG M2 affinity gel (Fig. 1g), anti-HA agarose (Fig. 1h, 2e) or anti-c-Myc agarose (Fig. 2d); some panels with siCHIP or siHSP70 knock-down and MG132
T1 sequence: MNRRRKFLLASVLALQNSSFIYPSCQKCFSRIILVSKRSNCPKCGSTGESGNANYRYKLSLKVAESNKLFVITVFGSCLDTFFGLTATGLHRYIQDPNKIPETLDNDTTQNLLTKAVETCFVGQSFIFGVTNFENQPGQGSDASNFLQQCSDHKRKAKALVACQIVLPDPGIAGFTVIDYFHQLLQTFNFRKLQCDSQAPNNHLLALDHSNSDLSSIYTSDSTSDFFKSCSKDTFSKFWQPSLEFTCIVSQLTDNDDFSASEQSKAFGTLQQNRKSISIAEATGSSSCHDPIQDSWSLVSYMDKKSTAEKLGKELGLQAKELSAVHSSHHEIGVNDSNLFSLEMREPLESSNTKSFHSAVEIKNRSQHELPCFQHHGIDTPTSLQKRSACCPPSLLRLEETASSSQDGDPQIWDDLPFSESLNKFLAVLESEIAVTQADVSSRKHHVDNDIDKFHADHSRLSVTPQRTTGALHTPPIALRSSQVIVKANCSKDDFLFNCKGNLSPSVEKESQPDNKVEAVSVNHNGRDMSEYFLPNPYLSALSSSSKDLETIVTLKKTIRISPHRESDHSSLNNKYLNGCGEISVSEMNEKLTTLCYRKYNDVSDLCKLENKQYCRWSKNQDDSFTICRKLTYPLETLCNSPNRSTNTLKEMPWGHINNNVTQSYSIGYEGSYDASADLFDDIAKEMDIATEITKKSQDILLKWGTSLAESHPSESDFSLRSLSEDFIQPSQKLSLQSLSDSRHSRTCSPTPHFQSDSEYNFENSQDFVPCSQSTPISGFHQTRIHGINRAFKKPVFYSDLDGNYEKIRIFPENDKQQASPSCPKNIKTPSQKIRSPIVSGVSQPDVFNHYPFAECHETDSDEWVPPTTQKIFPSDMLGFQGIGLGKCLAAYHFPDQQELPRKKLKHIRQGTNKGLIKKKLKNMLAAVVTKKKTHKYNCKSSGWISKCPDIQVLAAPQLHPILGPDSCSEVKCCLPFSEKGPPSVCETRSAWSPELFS

[2] = biological target: polypyrimidine tract-binding protein (PTB) (UniProt P26599); assay: two-hybrid; pairwise test in yeast with three reporters (beta-galactosidase, ADE2, URA3); empty pGBKT7 and pGADT7 as negative control
[3] = biological target: HA-CHIP (human) (UniProt Q9UNE7); assay: co-IP; HEK293T cells co-transfected; lysates in RIPA buffer; IP with anti-FLAG M2 affinity gel (Fig. 1g), anti-HA agarose (Fig. 1h, 2e) or anti-c-Myc agarose (Fig. 2d); some panels with siCHIP or siHSP70 knock-down and MG132

- binding [1]: no binding
Molecule: HA-CHIP-ΔTPR (128–303 amino acids) (from UniProt Q9UNE7-1 128-303) (domain or fragment)

- binding [2]: binds
Molecule: polypyrimidine tract-binding protein (PTB) (from UniProt P26599 1-557)

- binding [3]: no binding
B1: FLAG-DDIAS domain M (aa 401–600) (domain or fragment, UniProt Q8IXT1 401-600)
chain: TASSSQDGDPQIWDDLPFSESLNKFLAVLESEIAVTQADVSSRKHHVDNDIDKFHADHSRLSVTPQRTTGALHTPPIALRSSQVIVKANCSKDDFLFNCKGNLSPSVEKESQPDNKVEAVSVNHNGRDMSEYFLPNPYLSALSSSSKDLETIVTLKKTIRISPHRESDHSSLNNKYLNGCGEISVSEMNEKLTTLCYRKY
